Reference: the supplement of paper PMC10849652
This is one part of the list.

Chains of the proteins cited; added tags and fusions are not shown. Lines headed by an entry give the natural chain unless they say otherwise; changes in a name come on top.
UniProt Q9P003: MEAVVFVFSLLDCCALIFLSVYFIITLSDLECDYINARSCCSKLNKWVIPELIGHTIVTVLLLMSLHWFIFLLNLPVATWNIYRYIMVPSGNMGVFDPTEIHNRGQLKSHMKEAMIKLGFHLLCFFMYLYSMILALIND
UniProt Q9NYJ1, whole entry, looked up: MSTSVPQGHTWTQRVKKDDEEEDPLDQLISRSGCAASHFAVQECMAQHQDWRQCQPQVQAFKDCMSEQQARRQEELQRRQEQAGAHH
UniProt Q13286: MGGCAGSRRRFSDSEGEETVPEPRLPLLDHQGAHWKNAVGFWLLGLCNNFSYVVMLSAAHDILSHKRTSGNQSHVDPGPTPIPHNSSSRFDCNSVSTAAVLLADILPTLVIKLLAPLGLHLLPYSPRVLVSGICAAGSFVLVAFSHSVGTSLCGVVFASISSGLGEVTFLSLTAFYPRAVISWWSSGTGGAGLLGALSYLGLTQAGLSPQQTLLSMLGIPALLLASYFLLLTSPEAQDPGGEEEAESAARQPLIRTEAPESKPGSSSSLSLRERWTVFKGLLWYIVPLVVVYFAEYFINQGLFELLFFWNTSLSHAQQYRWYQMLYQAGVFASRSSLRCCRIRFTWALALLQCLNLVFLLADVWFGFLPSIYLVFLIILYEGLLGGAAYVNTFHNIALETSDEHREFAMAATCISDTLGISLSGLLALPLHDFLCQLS
UniProt P56277: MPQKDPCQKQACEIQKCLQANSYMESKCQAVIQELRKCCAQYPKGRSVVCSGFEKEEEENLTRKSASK
UniProt Q9Y240: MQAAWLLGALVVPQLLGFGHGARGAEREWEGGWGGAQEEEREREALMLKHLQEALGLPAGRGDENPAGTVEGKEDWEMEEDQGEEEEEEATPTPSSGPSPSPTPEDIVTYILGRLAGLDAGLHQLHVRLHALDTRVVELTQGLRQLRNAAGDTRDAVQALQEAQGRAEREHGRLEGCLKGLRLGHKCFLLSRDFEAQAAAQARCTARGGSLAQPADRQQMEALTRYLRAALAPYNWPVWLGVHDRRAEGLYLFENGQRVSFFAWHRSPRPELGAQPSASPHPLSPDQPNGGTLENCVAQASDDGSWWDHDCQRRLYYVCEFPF
UniProt Q8WWK9: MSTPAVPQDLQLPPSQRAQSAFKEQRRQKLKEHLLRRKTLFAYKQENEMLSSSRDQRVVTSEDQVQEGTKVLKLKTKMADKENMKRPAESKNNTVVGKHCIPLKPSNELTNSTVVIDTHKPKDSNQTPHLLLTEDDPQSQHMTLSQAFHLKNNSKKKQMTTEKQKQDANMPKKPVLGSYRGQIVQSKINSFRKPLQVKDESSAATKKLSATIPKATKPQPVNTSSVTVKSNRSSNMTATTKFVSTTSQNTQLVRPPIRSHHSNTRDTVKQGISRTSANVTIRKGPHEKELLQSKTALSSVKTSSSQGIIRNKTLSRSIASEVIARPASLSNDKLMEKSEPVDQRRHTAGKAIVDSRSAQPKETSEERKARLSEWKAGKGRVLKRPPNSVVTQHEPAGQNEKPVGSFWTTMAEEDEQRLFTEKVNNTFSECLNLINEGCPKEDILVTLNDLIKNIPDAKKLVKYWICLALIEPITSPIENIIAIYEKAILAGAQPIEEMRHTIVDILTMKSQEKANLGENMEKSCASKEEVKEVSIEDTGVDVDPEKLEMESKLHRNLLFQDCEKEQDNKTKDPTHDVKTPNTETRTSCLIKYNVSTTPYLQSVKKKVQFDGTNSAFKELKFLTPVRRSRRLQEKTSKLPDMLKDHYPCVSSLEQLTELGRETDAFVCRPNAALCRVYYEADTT
UniProt Q8WTW3: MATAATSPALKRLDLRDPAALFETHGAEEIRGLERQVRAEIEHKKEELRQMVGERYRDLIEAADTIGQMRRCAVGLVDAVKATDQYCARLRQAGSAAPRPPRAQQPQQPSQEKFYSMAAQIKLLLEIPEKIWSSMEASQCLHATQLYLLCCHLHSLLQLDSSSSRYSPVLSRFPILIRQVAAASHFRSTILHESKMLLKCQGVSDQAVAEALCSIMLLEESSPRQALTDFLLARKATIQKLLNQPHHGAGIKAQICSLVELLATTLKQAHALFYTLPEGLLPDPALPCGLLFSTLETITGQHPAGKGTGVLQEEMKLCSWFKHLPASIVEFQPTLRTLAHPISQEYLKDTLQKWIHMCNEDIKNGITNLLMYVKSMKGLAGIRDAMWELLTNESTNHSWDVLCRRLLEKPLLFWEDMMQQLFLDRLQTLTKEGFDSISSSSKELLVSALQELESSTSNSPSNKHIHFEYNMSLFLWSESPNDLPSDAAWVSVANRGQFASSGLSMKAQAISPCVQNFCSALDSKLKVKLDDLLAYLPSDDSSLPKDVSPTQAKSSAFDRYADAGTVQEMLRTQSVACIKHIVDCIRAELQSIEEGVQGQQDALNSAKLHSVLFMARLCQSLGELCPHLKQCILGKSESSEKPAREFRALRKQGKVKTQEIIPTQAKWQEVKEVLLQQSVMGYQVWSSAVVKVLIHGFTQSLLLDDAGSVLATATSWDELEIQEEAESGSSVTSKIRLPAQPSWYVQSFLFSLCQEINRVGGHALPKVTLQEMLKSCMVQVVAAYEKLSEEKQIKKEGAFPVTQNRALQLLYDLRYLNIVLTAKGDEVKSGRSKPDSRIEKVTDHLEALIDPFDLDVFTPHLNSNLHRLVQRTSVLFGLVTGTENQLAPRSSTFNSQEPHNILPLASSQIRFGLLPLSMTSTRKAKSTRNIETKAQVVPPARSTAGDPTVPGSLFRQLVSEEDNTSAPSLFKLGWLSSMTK
UniProt Q14011: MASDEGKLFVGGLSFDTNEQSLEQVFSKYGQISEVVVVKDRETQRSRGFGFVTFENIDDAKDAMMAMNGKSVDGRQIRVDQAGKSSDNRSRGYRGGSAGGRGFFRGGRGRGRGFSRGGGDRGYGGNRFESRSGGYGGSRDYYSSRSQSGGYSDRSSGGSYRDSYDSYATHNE
UniProt P56747: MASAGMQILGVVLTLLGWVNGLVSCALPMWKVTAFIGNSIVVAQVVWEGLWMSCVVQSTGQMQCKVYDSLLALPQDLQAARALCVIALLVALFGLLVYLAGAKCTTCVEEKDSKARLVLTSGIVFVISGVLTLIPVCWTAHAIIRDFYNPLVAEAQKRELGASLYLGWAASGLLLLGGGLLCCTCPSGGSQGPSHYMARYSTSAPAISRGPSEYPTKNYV
UniProt Q86WW8: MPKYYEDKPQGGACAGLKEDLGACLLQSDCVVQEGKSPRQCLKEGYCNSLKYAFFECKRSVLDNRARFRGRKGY
UniProt P33552, whole entry, looked up: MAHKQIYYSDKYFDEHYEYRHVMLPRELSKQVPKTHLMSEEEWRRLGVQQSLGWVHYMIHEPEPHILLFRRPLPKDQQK
UniProt P51795: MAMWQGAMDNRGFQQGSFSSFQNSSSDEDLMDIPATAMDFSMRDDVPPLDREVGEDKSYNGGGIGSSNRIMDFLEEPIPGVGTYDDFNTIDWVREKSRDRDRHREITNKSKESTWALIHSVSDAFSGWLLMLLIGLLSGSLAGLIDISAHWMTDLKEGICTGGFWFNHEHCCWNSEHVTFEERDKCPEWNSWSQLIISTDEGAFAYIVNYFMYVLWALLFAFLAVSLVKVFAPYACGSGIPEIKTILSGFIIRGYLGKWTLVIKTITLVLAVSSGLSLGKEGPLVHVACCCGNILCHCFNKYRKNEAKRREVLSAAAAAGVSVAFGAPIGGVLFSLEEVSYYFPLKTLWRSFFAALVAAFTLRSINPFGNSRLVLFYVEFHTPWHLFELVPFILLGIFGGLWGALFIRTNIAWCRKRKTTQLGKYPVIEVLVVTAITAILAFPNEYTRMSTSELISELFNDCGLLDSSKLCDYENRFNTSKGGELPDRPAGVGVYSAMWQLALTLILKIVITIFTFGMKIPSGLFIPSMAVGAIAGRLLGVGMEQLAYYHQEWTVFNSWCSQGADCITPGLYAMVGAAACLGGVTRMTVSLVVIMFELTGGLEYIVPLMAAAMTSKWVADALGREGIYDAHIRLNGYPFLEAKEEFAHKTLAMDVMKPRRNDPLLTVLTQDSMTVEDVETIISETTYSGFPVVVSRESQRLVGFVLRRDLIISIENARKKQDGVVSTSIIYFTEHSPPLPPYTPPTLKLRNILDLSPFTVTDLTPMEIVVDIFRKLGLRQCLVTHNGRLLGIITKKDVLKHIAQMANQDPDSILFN
UniProt P56749: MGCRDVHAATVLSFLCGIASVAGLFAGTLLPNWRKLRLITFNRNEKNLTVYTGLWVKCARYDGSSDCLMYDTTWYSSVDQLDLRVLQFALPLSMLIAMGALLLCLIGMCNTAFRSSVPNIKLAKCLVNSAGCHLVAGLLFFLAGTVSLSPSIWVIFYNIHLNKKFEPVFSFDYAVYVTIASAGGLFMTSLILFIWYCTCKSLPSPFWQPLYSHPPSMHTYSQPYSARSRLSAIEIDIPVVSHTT
UniProt O15111: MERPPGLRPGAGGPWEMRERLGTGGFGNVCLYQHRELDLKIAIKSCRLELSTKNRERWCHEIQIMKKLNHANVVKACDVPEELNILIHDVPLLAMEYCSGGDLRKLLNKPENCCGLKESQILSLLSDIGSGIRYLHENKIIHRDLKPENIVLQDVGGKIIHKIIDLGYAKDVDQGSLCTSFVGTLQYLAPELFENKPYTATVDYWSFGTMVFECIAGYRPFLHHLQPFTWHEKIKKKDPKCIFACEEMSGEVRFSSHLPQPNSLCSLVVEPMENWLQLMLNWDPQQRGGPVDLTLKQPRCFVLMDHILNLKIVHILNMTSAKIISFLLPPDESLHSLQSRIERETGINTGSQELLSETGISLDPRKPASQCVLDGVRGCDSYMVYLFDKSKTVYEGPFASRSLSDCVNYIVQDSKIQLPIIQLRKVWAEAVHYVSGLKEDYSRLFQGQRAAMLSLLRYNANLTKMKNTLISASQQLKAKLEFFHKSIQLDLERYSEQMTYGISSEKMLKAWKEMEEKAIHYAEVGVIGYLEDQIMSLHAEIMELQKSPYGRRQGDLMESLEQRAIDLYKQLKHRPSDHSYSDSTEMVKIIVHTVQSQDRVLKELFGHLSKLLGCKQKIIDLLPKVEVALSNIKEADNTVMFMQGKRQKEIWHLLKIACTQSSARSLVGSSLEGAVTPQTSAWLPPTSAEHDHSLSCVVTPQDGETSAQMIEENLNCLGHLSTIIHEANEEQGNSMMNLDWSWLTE
UniProt Q9Y2V7: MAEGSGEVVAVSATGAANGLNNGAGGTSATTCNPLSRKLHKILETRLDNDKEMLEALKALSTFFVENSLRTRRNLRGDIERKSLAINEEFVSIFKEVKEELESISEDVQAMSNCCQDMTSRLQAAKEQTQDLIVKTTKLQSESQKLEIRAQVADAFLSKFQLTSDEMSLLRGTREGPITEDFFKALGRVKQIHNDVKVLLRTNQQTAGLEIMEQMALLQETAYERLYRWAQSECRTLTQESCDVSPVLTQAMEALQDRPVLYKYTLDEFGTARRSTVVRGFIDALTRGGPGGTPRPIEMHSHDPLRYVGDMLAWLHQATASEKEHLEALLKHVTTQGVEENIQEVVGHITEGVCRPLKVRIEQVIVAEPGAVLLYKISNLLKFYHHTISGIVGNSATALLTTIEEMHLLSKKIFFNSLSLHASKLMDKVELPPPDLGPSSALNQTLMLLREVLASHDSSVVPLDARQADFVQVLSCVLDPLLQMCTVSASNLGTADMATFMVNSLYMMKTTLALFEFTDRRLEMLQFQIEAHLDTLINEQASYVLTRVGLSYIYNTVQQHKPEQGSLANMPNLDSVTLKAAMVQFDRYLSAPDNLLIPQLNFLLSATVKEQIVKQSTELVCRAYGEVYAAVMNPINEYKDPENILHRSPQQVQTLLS
UniProt Q96F85: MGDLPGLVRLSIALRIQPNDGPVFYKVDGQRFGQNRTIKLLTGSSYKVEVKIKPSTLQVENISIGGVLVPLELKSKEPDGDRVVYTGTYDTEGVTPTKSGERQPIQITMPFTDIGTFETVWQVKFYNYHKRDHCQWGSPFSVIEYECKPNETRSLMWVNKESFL
UniProt P51801: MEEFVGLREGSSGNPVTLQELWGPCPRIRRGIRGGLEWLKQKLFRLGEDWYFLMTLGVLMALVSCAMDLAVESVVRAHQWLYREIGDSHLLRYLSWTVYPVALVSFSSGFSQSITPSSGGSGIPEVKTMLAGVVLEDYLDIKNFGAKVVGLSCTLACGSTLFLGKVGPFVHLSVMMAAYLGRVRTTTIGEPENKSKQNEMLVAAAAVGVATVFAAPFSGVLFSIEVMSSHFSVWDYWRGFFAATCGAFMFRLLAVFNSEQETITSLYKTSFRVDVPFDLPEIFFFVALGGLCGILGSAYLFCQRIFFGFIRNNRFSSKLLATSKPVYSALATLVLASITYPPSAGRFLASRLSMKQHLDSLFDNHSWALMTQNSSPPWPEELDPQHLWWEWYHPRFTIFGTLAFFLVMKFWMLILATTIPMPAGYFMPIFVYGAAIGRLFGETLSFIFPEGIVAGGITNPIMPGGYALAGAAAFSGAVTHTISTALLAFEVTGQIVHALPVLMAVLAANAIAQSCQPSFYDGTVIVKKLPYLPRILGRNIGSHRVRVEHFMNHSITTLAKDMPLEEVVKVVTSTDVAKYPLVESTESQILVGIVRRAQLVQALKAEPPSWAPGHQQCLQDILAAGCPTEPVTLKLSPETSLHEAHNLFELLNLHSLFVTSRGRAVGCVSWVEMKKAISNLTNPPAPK

What was measured:
Experiment in all cases: log2 fold change, soluble protein after heating vs DMSO (PISA); higher = thermal stabilisation; K562 cells, 10 uM, 30 min; active = over 0.2 and 3.5 SD of the protein, either way, in both replicates (recomputed)
[1] = compound: NC(=O)Nc1cc(-c2cccc(F)c2)sc1C(=O)N[C@H]1CCCNC1
Summary of the method: (§1)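 Aliquots of K562 cells (2×10^6 cells/mL) treated with 10 μM compound for 30 min were heated for 3 min over 48°C-58°C. After pooling and extraction in PBS with 0.5% NP-40 at 4°C, soluble protein from a 21,000xg, 90 min spin was quantified by TMTpro 16plex LC-MS/MS with channel sums equalised. Thermal stability is expressed against control samples, from duplicates, as a log2 fold change.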

[2] = compound: NC(=O)c1cnc(N[C@@H]2CCCC[C@@H]2N)nc1Nc1cccc(-n2nccn2)c1
Summary of the method: as §1

[3] = compound: NC1(c2ccc(-c3nc4ccn5c(=O)[nH]nc5c4cc3-c3ccccc3)cc2)CCC1
Summary of the method: as §1

[4] = compound: NCC(=O)Nc1ccc(-n2nc(C(F)(F)F)cc2-c2ccc3c(ccc4ccccc43)c2)cc1
Summary of the method: as §1

entinostat = compound: Nc1ccccc1NC(=O)c1ccc(CNC(=O)OCc2cccnc2)cc1 [entinostat]
Summary of the method: as §1

citarinostat = compound: O=C(CCCCCCNC(=O)c1cnc(N(c2ccccc2)c2ccccc2Cl)nc1)NO [citarinostat]
Summary of the method: as §1

silmitasertib = compound: O=C(O)c1ccc2c(c1)nc(Nc1cccc(Cl)c1)c1ccncc12 [silmitasertib]
Summary of the method: as §1

[5] = compound: c1cc(OCCN2CCCCC2)cc(-c2n[nH]c3ccc(-c4nnc[nH]4)cc23)c1
Summary of the method: as §1

entospletinib = compound: c1cn2cc(-c3ccc4cn[nH]c4c3)nc(Nc3ccc(N4CCOCC4)cc3)c2n1 [entospletinib]
Summary of the method: as §1

vorinostat = compound: O=C(CCCCCCC(=O)Nc1ccccc1)NO [vorinostat]
Summary of the method: as §1

[6] = compound: O=C1NC(=O)C(c2cnc3ccccn23)=C1c1cn2c3c(cc(F)cc13)CN(C(=O)N1CCCCC1)CC2
Summary of the method: as §1

Measured: log2 fold change

CNIH4 (UniProt Q9P003)
inactive: [1] -0.079 | [2] 0.103 | [3] 0.046 | [4] 0.094 | entinostat -0.126 | citarinostat 0.024 | silmitasertib 0.099 | [5] 0.037 | entospletinib -0.038

COL14A1 (UniProt Q05707)
inactive: [1] 0.122 | [3] 0.067 | [4] -0.267 | entinostat 0.169 | vorinostat -0.148 | citarinostat 0.102 | silmitasertib 0.007 | [6] 0.109 | [5] -0.208 | entospletinib -0.006

CHPF (UniProt Q8IZ52)
inactive: [1] 0.087 | [2] -0.052 | [3] -0.032 | [4] 0.294 | entinostat 0.212 | citarinostat 0 | silmitasertib 0.048 | [6] 0.122 | [5] -0.142 | entospletinib 0.074

CNNM2 (UniProt Q9H8M5)
inactive: [1] 0.063 | [3] 0.062 | [4] -0.215 | entinostat 0.161 | vorinostat -0.124 | citarinostat 0.147 | silmitasertib 0.09 | [6] 0.016 | [5] -0.008 | entospletinib -0.049

COA4 isoform 2 (UniProt Q9NYJ1)
inactive: [1] 0.073 | [2] 0.04 | [3] 0.006 | entinostat 0.07 | vorinostat -0.066 | citarinostat -0.03 | silmitasertib 0.014 | [6] -0.018 | [5] -0.078 | entospletinib 0.062

COL15A1 (UniProt P39059)
inactive: [1] 0.079 | [2] -0.028 | [3] 0.026 | [4] -0.014 | entinostat 0.052 | citarinostat 0.02 | silmitasertib 0.047 | [6] 0.098 | [5] -0.036 | entospletinib 0.059

CLASRP (UniProt Q8N2M8)
inactive: [1] -0.024 | [2] -0.116 | entinostat -0.093 | vorinostat 0.097 | citarinostat 0.062 | [6] 0.115 | [5] 0.116 | entospletinib 0.029

CLSTN1 (UniProt O94985)
inactive: [1] -0.198 | [2] -0.34 | [3] -0.035 | entinostat 0.129 | vorinostat -0.093 | citarinostat -0.31 | silmitasertib -0.013 | [5] -0.054 | entospletinib 0.005

CNOT11 (UniProt Q9UKZ1)
inactive: [1] 0.104 | [2] -0.082 | [3] -0.104 | [4] -0.052 | entinostat 0.06 | citarinostat 0.01 | silmitasertib 0.047 | [6] 0.107 | [5] -0.109 | entospletinib -0.067

COG3 (UniProt Q96JB2)
inactive: [3] 0.155 | [4] -0.042 | citarinostat -0.105 | silmitasertib 0.234 | [6] 0.109 | [5] -0.17 | entospletinib 0.043

CLASP2 (UniProt O75122)
inactive: [2] -0.049 | [3] 0.046 | citarinostat 0.143 | silmitasertib 0.083 | [5] 0.08

CLN3 (UniProt Q13286)
inactive: [3] -0.112 | [4] -0.124 | citarinostat 0.042 | silmitasertib 0.025 | [6] 0.072 | [5] -0.033

CMC4 (UniProt P56277)
inactive: [2] -0.113 | vorinostat -0.128

2 records drawn at random from the list so far, as already listed:
CLASP2 (UniProt O75122)
inactive: [2] -0.049 | [3] 0.046 | citarinostat 0.143 | silmitasertib 0.083 | [5] 0.08

CLN3 (UniProt Q13286)
inactive: [3] -0.112 | [4] -0.124 | citarinostat 0.042 | silmitasertib 0.025 | [6] 0.072 | [5] -0.033

(next part)

CLSTN3 isoform 2 (UniProt Q9BQT9)
inactive: [2] -0.077 | [4] 0.341 | vorinostat -0.112 | [6] 0.117

CLEC11A (UniProt Q9Y240)
inactive: vorinostat 0.067

CNEP1R1 isoform 2 (UniProt Q8N9A8)
inactive: [2] 0.07 | [4] -0.101

COG8 (UniProt Q96MW5)
inactive: [3] 0.22 | citarinostat 0.239 | silmitasertib -0.16 | [6] 0.335 | [5] -0.153 | entospletinib 0.12

CKAP2 (UniProt Q8WWK9)
inactive: [1] -0.073 | [3] 0.141 | entinostat 0.116 | silmitasertib 0.031 | [6] 0.359

COG1 (UniProt Q8WTW3)
inactive: [1] 0.019 | entinostat -0.225 | vorinostat 0.059

COL12A1 (UniProt Q99715)
inactive: [1] -0.215 | entinostat 0.036 | [6] -0.132

CHSY1 (UniProt Q86X52)
inactive: [6] 0.279

COG5 isoform 2 (UniProt Q9UP83)
inactive: [4] 0.448

CIRBP (UniProt Q14011)
inactive: [2] -0.002 | [3] 0.123 | [4] 0.042 | vorinostat -0.034 | citarinostat -0.019 | silmitasertib 0.146 | [6] 0.252 | [5] -0.08 | entospletinib -0.024

CLDN6 (UniProt P56747)
inactive: vorinostat 0.297

COA5 (UniProt Q86WW8)
inactive: [2] -0.018 | [4] 0.009 | [6] 0.149

CNBP isoform 4 (UniProt P62633)
inactive: [3] 0.134 | citarinostat -0.005 | silmitasertib 0.058 | [5] -0.113 | entospletinib 0.041

CKS2 (UniProt P33552)
inactive: [2] -0.021 | [3] -0.039 | vorinostat 0.28 | citarinostat -0.092 | silmitasertib 0.065 | [5] -0.071

CLCN5 isoform 2 (UniProt P51795)
inactive: [4] 0.004 | vorinostat 0.062 | citarinostat 0.045 | [5] -0.114

CLYBL (UniProt Q8N0X4)
inactive: vorinostat -0.041

CHST12 (UniProt Q9NRB3)
inactive: [1] 0.095 | [4] -0.1 | entinostat -0.078 | vorinostat 0.068 | [6] -0.003

CNOT4 isoform 9 (UniProt O95628)
inactive: [2] -0.115 | [3] -0.077 | [4] 0.11 | vorinostat -0.003 | citarinostat -0.038 | silmitasertib 0.024 | [5] 0.178

CLDN12 (UniProt P56749)
inactive: [1] -0.242 | [3] 0.067 | entinostat -0.05 | silmitasertib 0.044 | [6] -0.255

CLINT1 (UniProt Q14677)
inactive: [2] 0.001 | [3] 0.037 | [4] 0.034 | citarinostat -0.146 | silmitasertib 0.021 | [6] 0.058 | [5] 0.062

CHUK (UniProt O15111)
inactive: [2] -0.276 | [3] 0.07 | [4] 0.045 | vorinostat 0.093 | silmitasertib 0.146 | [6] 0.355

COG7 (UniProt P83436)
inactive: [2] -0.085 | [3] 0.094 | [4] 0.106 | silmitasertib 0.058 | [6] 0.031

CIAO2B (UniProt Q9Y3D0)
inactive: [1] 0.026 | [3] -0.224 | entinostat 0.073 | citarinostat -0.02 | silmitasertib 0.17 | [5] -0.058 | entospletinib 0.093

COG4 (UniProt Q9H9E3)
inactive: [1] 0.3 | [4] -0.133 | entinostat 0.047 | vorinostat 0.138 | [6] 0.34

CMYA5 (UniProt Q8N3K9)
inactive: [1] -0.217 | [3] 0.02 | entinostat -0.15 | silmitasertib 0.167

COG6 (UniProt Q9Y2V7)
inactive: [2] -0.014 | [3] 0.099 | [4] -0.09 | silmitasertib -0.114

CNRIP1 (UniProt Q96F85)
active: [6] 0.738
inactive: [3] 0.258 | silmitasertib -0.13

CHST14 (UniProt Q8NCH0)
inactive: [2] -0.018 | [3] -0.238 | [4] -0.023 | vorinostat 0.018 | silmitasertib -0.036 | [6] -0.02

CLCNKB (UniProt P51801)
inactive: [2] -0.075 | [4] 0.316 | vorinostat -0.109 | [6] 0.26
